The supplement of paper PMC8728848
The other results are listed elsewhere or left out.

How the values were obtained:
Assay in all cases: glycan array binding signal (z-score within array); higher = stronger binding
Conditions in all cases: glycan notation: IUPAC condensed, linker removed
[1] = target: Gal(b1-4)GlcNAc(b1-3)Gal(b1-4)GlcNAc(b1-3)Gal(b1-4)GlcNAc(b1-3)Gal(b1-4)GlcNAc(b1-2)Man(a1-3)[Gal(b1-4)GlcNAc(b1-3)Gal(b1-4)GlcNAc(b1-3)Gal(b1-4)GlcNAc(b1-3)Gal(b1-4)GlcNAc(b1-2)Man(a1-6)]Man(b1-4)GlcNAc(b1-4)[Fuc(a1-6)]GlcNAc
Method in brief: (§1)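 The Consortium for Functional Glycomics database supplied 3228 glycan arrays, of which those lacking an available protein sequence were dropped. The binding signal, a within-array Z-score, was averaged across arrays of the same protein sequence and across linkers. Negative scores can be read as non-binding.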

[2] = target: Gal(b1-4)GlcNAc(b1-3)Gal(b1-4)GlcNAc(b1-3)Gal(b1-4)GlcNAc(b1-3)Gal(b1-4)GlcNAc(b1-2)[Gal(b1-4)GlcNAc(b1-3)Gal(b1-4)GlcNAc(b1-3)Gal(b1-4)GlcNAc(b1-3)Gal(b1-4)GlcNAc(b1-6)]Man(a1-6)[Gal(b1-4)GlcNAc(b1-3)Gal(b1-4)GlcNAc(b1-3)Gal(b1-4)GlcNAc(b1-3)Gal(b1-4)GlcNAc(b1-2)Man(a1-3)]Man(b1-4)GlcNAc(b1-4)[Fuc(a1-6)]GlcNAc
Method in brief: as §1

[3] = target: Gal(b1-4)GlcNAc(b1-3)Gal(b1-4)GlcNAc(b1-3)Gal(b1-4)GlcNAc(b1-3)Gal(b1-4)GlcNAc(b1-3)Gal(b1-4)GlcNAc(b1-2)Man(a1-3)[Gal(b1-4)GlcNAc(b1-3)Gal(b1-4)GlcNAc(b1-3)Gal(b1-4)GlcNAc(b1-3)Gal(b1-4)GlcNAc(b1-3)Gal(b1-4)GlcNAc(b1-2)Man(a1-6)]Man(b1-4)GlcNAc(b1-4)GlcNAc
Method in brief: as §1

[4] = target: Gal(b1-4)GlcNAc(b1-3)Gal(b1-4)GlcNAc(b1-3)Gal(b1-4)GlcNAc(b1-3)Gal(b1-4)GlcNAc(b1-3)Gal(b1-4)GlcNAc(b1-2)Man(a1-3)[Gal(b1-4)GlcNAc(b1-3)Gal(b1-4)GlcNAc(b1-3)Gal(b1-4)GlcNAc(b1-3)Gal(b1-4)GlcNAc(b1-3)Gal(b1-4)GlcNAc(b1-2)Man(a1-6)]Man(b1-4)GlcNAc(b1-4)[Fuc(a1-6)]GlcNAc
Method in brief: as §1

[5] = target: Gal(b1-4)GlcNAc(b1-3)Gal(b1-4)GlcNAc(b1-3)Gal(b1-4)GlcNAc(b1-3)Gal(b1-4)GlcNAc(b1-3)Gal(b1-4)GlcNAc(b1-2)[Gal(b1-4)GlcNAc(b1-3)Gal(b1-4)GlcNAc(b1-3)Gal(b1-4)GlcNAc(b1-3)Gal(b1-4)GlcNAc(b1-3)Gal(b1-4)GlcNAc(b1-6)]Man(a1-6)[Gal(b1-4)GlcNAc(b1-3)Gal(b1-4)GlcNAc(b1-3)Gal(b1-4)GlcNAc(b1-3)Gal(b1-4)GlcNAc(b1-3)Gal(b1-4)GlcNAc(b1-2)Man(a1-3)]Man(b1-4)GlcNAc(b1-4)[Fuc(a1-6)]GlcNAc
Method in brief: as §1

[6] = target: Gal(b1-4)GlcNAc(b1-3)Gal(b1-4)GlcNAc(b1-3)Gal(b1-4)GlcNAc(b1-3)Gal(b1-4)GlcNAc(b1-3)Gal(b1-4)GlcNAc(b1-3)Gal(b1-4)GlcNAc(b1-2)Man(a1-3)[Gal(b1-4)GlcNAc(b1-3)Gal(b1-4)GlcNAc(b1-3)Gal(b1-4)GlcNAc(b1-3)Gal(b1-4)GlcNAc(b1-3)Gal(b1-4)GlcNAc(b1-3)Gal(b1-4)GlcNAc(b1-2)Man(a1-6)]Man(b1-4)GlcNAc(b1-4)GlcNAc
Method in brief: as §1

[7] = target: Gal(b1-4)GlcNAc(b1-3)Gal(b1-4)GlcNAc(b1-3)GalNAc
Method in brief: as §1

[8] = target: Gal(b1-4)GlcNAc(b1-3)Gal(b1-4)GlcNAc(b1-3)[Gal(b1-4)GlcNAc(b1-3)Gal(b1-4)GlcNAc(b1-6)]GalNAc
Method in brief: as §1

[9] = target: Gal(b1-4)GlcNAc(b1-3)Gal(b1-4)GlcNAc(b1-6)[Gal(b1-3)]GalNAc
Method in brief: as §1

[10] = target: Gal(b1-4)GlcNAc(b1-3)Gal(b1-4)[Fuc(a1-3)]GlcNAc(b1-3)Gal(b1-4)[Fuc(a1-3)]GlcNAc
Method in brief: as §1

[11] = target: Gal(b1-4)GlcNAc(b1-3)GalNAc
Method in brief: as §1

[12] = target: Gal(b1-4)GlcNAc(b1-3)[Fuc(a1-3)GlcNAc(b1-6)]Gal(b1-4)Glc
Method in brief: as §1

[13] = target: Gal(b1-4)GlcNAc(b1-3)[Gal(b1-4)GlcNAc(b1-6)]Gal(b1-4)GlcNAc
Method in brief: as §1

[14] = target: Gal(b1-4)GlcNAc(b1-3)[GlcNAc(b1-6)]Gal(b1-4)GlcNAc
Method in brief: as §1

[15] = target: Gal(b1-4)GlcNAc(b1-6)Gal(b1-4)GlcNAc
Method in brief: as §1

[16] = target: Gal(b1-4)GlcNAc(b1-6)GalNAc
Method in brief: as §1

[17] = target: Gal(b1-4)GlcNAc(b1-6)[Gal(b1-3)]GalNAc
Method in brief: as §1

[18] = target: Gal(b1-4)GlcNAc(b1-6)[Gal(b1-4)GlcNAc(b1-3)]GalNAc
Method in brief: as §1

Gal(b1-4)GlcNAc6P = target: Gal(b1-4)GlcNAc6P
Method in brief: as §1

Gal(b1-6)Gal = target: Gal(b1-6)Gal
Method in brief: as §1

Gal3S(b1-3)GalNAc = target: Gal3S(b1-3)GalNAc
Method in brief: as §1

Gal3S(b1-3)GlcNAc = target: Gal3S(b1-3)GlcNAc
Method in brief: as §1

[19] = target: Gal3S(b1-3)[Fuc(a1-4)]GlcNAc
Method in brief: as §1

B1: Langerin K299A/K313A (Homo sapiens), Q9UJ71 (protein)
chain: STLNAQIPELKSDLEKASALNTKIRALQGSLENMSKLLKRQNDILQVVSQGWKYFKGNFYYFSLIPKTWYSAEQFCVSRNSHLTSVTSESEQEFLYKTAGGLIYWIGLTKAGMEGDWSWVDDTPFNKVQSARFWIPGEPNNAGNNEHCGNIAAPSLQAWNDAPCDATFLFICKRPYVPSEP
glycan array binding signal (z-score) [1]: 3.97 | glycan array binding signal (z-score) [2]: 3.09 | glycan array binding signal (z-score) [3]: 1.71 | glycan array binding signal (z-score) [4]: -0.369 | glycan array binding signal (z-score) [5]: 1.6 | glycan array binding signal (z-score) [6]: 1.04 | glycan array binding signal (z-score) [7]: -0.112 | glycan array binding signal (z-score) [8]: 1.45 | glycan array binding signal (z-score) [9]: 1.47 | glycan array binding signal (z-score) [10]: 0.704 | glycan array binding signal (z-score) [11]: -0.649 | glycan array binding signal (z-score) [12]: -1.16 | glycan array binding signal (z-score) [13]: 0.398 | glycan array binding signal (z-score) [14]: -0.968 | glycan array binding signal (z-score) [15]: 0.093 | glycan array binding signal (z-score) [16]: -0.439 | glycan array binding signal (z-score) [17]: -0.626 | glycan array binding signal (z-score) [18]: -0.711 | glycan array binding signal (z-score) (Gal(b1-4)GlcNAc6P): 0.224 | glycan array binding signal (z-score) (Gal(b1-6)Gal): 0.579 | glycan array binding signal (z-score) (Gal3S(b1-3)GalNAc): -0.643 | glycan array binding signal (z-score) (Gal3S(b1-3)GlcNAc): 0.369 | glycan array binding signal (z-score) [19]: 0.975
